# Test results from PMC7862700.
# The entries are a selection whose mix differs from that of the whole data set. Some of the results follow. For some of these results: Construct or isoform of the protein are uncertain.
# Tests used:
# Experiment in all cases: DAPPL (digital affinity profiling via proximity ligation, sequencing)
# Conditions in all cases: 10 mM Tris-HCl pH 7.5, 50 mM NaCl, 1 mM DTT, 4% glycerol, room temperature, 30 min; GST-TFs on glutathione beads, 16-mer random dsDNA library, 0.1% …; high values mean tight binding; double strand, one strand shown; scale: fold enrichment (6-mer frequency, TF over GST control)
# ELK4 = target: T1, ELK4 (UniProt P28324-2)
# T1 sequence: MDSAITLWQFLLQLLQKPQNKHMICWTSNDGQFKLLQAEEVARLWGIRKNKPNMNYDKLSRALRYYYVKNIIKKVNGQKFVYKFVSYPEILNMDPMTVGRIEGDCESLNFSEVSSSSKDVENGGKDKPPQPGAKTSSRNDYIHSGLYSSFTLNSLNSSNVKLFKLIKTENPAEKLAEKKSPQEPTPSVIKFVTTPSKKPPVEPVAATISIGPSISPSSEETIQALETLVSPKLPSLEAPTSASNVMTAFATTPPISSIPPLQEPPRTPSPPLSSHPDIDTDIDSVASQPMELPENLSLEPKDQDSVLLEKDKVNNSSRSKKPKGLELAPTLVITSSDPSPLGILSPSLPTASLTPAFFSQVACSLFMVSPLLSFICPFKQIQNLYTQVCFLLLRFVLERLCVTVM
# ETV4 = target: T2, ETV4 (UniProt P43268)
# T2 sequence: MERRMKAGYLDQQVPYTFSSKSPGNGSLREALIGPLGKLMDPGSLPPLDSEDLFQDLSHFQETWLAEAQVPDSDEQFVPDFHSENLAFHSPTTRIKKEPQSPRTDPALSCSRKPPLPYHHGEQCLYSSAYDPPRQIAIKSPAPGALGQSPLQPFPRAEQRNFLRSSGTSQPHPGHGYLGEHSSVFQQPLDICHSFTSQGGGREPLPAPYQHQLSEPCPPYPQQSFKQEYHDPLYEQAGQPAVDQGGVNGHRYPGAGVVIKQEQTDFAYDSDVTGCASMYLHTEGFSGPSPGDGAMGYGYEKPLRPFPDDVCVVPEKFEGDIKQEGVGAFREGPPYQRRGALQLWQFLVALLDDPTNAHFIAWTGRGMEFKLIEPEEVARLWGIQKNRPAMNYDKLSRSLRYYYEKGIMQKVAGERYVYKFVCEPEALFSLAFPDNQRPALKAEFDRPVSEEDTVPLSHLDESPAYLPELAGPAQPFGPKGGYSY
# ERG = target: T3, ERG (UniProt P11308)
# T3 sequence: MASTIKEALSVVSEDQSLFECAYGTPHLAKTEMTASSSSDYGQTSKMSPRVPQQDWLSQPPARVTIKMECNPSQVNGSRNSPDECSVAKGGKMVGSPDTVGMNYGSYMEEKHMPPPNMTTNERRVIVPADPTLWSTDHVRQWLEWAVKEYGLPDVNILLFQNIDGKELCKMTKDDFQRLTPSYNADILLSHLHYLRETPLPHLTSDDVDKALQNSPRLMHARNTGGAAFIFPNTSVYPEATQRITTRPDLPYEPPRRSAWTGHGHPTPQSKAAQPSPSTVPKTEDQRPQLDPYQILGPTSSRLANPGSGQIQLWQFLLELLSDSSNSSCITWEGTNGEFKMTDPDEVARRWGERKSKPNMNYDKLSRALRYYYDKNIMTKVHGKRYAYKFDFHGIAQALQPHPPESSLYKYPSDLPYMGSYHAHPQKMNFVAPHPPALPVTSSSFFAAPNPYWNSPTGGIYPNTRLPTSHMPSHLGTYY
sequence,measurement,setting,value
ATTCGC,binding signal,ELK4,1.1
same,binding signal,ETV4,1.19
GGCCTT,binding signal,ELK4,1.09
same,binding signal,ETV4,1.24
GATTTG,binding signal,ELK4,1.19
same,binding signal,ETV4,1.24
CCACAT,binding signal,ELK4,1.28
same,binding signal,ETV4,1.24
GGTTTG,binding signal,ELK4,1.26
same,binding signal,ETV4,1.13
CGACAT,binding signal,ERG,1.31
same,binding signal,ELK4,1.3
same,binding signal,ETV4,1.26

# Part of the list above, as tab-separated lines:
sequence	measurement	setting	value
CGACAT	binding signal	ERG	1.31
same	binding signal	ELK4	1.3
same	binding signal	ETV4	1.26
